According to the supplement of paper PMC10331698:
± gives the standard deviation of the averaged measurements. Small differences around the control level are noise.

Assays:
Assay in all cases: level (log10 ratio to DMSO vehicle control); higher = higher biomarker level / cell amount than vehicle control
Nonafluoropentanamide = compound: NC(=O)C(F)(F)C(F)(F)C(F)(F)C(F)(F)F [Nonafluoropentanamide]; conditions: 2200 nM; in DMSO
Protocol: (§1)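 BioMAP Diversity Plus panel of 12 human primary cell co-culture systems (3C, 4H, LPS, SAg, BT, BF4T, BE3C, CASM3C, HDF3CGF, KF3CT, MyoF, Mphg). Compounds were added 1 h before stimulation and left for 24 h (MyoF 48 h; BT 72 h for soluble read-outs or 6 d for IgG). Biomarkers were read by ELISA, cytotoxicity by SRB, PBMC viability and proliferation by Alamar Blue. Each well value was divided by the mean of 8 DMSO control wells on the same plate and log10 transformed; duplicate blinded samples were tested at 4 concentrations.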

[1] = compound: FC(F)(F)C(F)(F)C(F)(F)C(F)(F)C(F)(F)CCI [1-Iodo-1H,1H,2H,2H-perfluoroheptane]; conditions: 2200 nM; in DMSO
Protocol: as §1

[2] = compound: OCCC(F)(F)C(F)(F)C(F)(F)C(F)(F)F [4:2 Fluorotelomer alcohol]; conditions: 2200 nM; in DMSO
Protocol: as §1

[3] = compound: O=C(O)CCC(F)(F)C(F)(F)C(F)(F)C(F)(F)C(F)(F)F [2H,2H,3H,3H-Perfluorooctanoic acid]; conditions: 2200 nM; in DMSO
Protocol: as §1

Octafluoroadipamide = compound: NC(=O)C(F)(F)C(F)(F)C(F)(F)C(F)(F)C(N)=O [Octafluoroadipamide]; conditions: 2200 nM; in DMSO
Protocol: as §1

[4] = compound: O=S(=O)(O)C(F)(F)C(F)(F)OC(F)(F)C(F)(F)F [Perfluoro(2-ethoxyethane)sulfonic acid]; conditions: 2200 nM; in DMSO
Protocol: as §1

Tetrafluorosuccinic acid = compound: O=C(O)C(F)(F)C(F)(F)C(=O)O [Tetrafluorosuccinic acid]; conditions: 2200 nM; in DMSO
Protocol: as §1

[5] = compound: C=C(C)C(=O)OCCC(F)(F)C(F)(F)C(F)(F)C(F)(F)C(F)(F)C(F)(F)C(F)(F)C(F)(F)F [8:2 Fluorotelomer methacrylate]; conditions: in DMSO
Protocol: as §1

[6] = compound: O=S(=O)(O)CCC(F)(F)C(F)(F)C(F)(F)C(F)(F)C(F)(F)C(F)(F)F [6:2 Fluorotelomer sulfonic acid]; conditions: in DMSO
Protocol: as §1

[7] = compound: NS(=O)(=O)C(F)(F)C(F)(F)C(F)(F)C(F)(F)C(F)(F)C(F)(F)F [Perfluorohexanesulfonamide]; conditions: 2200 nM; in DMSO
Protocol: as §1

Perfluoropinacol = compound: OC(C(F)(F)F)(C(F)(F)F)C(O)(C(F)(F)F)C(F)(F)F [Perfluoropinacol]; conditions: in DMSO
Protocol: as §1

[8] = compound: C=C(C)C(=O)OCCC(F)(F)C(F)(F)C(F)(F)C(F)(F)C(F)(C(F)(F)F)C(F)(F)F [(Perfluoro-5-methylhexyl)ethyl 2-methylprop-2-enoate]; conditions: in DMSO
Protocol: as §1

[9] = compound: COC(=O)CCC(F)(F)C(F)(F)C(F)(F)C(F)(F)F [Methyl 2H,2H,3H,3H-perfluoroheptanoate]; conditions: 2200 nM; in DMSO
Protocol: as §1

[10] = compound: O=C(O)C(F)(F)C(F)(F)C(F)(F)C(F)(F)C(F)(F)C(F)(F)C(F)(F)C(F)(F)Cl [9-Chloro-perfluorononanoic acid]; conditions: in DMSO
Protocol: as §1

Row | Test System | level (log10) (Nonafluoropentanamide) | level (log10) [1] | level (log10) [2] | level (log10) [3] | level (log10) (Octafluoroadipamide) | level (log10) [4] | level (log10) (Tetrafluorosuccinic acid) | level (log10) ([5]; 740 nM) | level (log10) ([5]; 2200 nM) | level (log10) ([6]; 2200 nM) | level (log10) ([6]; 6700 nM) | level (log10) ([6]; 20000 nM) | level (log10) ([6]; 60000 nM) | level (log10) [7] | level (log10) (Perfluoropinacol; 2200 nM) | level (log10) (Perfluoropinacol; 6700 nM) | level (log10) (Perfluoropinacol; 20000 nM) | level (log10) ([8]; 740 nM) | level (log10) ([8]; 2200 nM) | level (log10) ([8]; 6700 nM) | level (log10) ([8]; 20000 nM) | level (log10) [9] | level (log10) ([10]; 2200 nM) | level (log10) ([10]; 6700 nM) | level (log10) ([10]; 20000 nM)
1 | lMphg:SRB-Mphg | -0.0035 ± 0.013 | 0.011 ± 0.013 | -0.016 ± 0.11 | 0.0045 ± 0.0021 | 0.013 ± 0.041 | 0.012 ± 0.0042 | 0.013 ± 0.0071 | 0.017 ± 0.02 | 0.0065 ± 0.0064 | 0.0085 ± 0.00071 | 0.0065 ± 0.0064 | 0.0135 ± 0.0078 | 0.0025 ± 0.036 | 0.005 ± 0.0085 | 0.0015 ± 0.0092 | -0.015 ± 0.0099 | -0.05 ± 0.0028 | 0.0075 ± 0.005 | 0.005 ± 0.0071 | 0.0015 ± 0.011 | -0.0095 ± 0.021 | 0.004 ± 0.02 | -0.002 ± 0.0085 | 0.01 ± 0.0042 | 0.0055 ± 0.018
2 | BT:sIL-2 | 0.0555 ± 0.037 | 0.029 ± 0.0057 | -0.001 ± 0.086 | 0.064 ± 0.035 | 0.115 ± 0.11 | 0.051 ± 0.0085 | 0.0095 ± 0.035 | 0.007 ± 0.081 | -0.0075 ± 0.049 | 0.0125 ± 0.023 | -0.0555 ± 0.011 | 0.0325 ± 0.018 | -0.01 ± 0.031 | 0.025 ± 0.0042 | 0.111 ± 0.087 | 0.107 ± 0.059 | 0.0335 ± 0.071 | -0.032 ± 0.051 | -0.0355 ± 0.04 | -0.0185 ± 0.025 | -0.0245 ± 0.039 | 0.045 ± 0.035 | -0.0595 ± 0.015 | -0.0175 ± 0.066 | -0.0565 ± 0.1
3 | SAg:CD40 | -0.0125 ± 0.023 | -0.024 ± 0.038 | -0.0185 ± 0.016 | -0.031 ± 0.031 | -0.0055 ± 0.0064 | 0.009 ± 0.0099 | -0.015 ± 0.016 | -0.012 ± 0.042 | -0.018 ± 0.014 | -0.013 ± 0.041 | -0.0275 ± 0.046 | -0.0285 ± 0.064 | -0.053 ± 0.035 | 0.009 ± 0.027 | -0.0095 ± 0.0092 | -0.021 ± 0.016 | -0.146 ± 0.013 | 0 ± 0.0085 | 0.0065 ± 0.037 | 0 ± 0.0071 | -0.0275 ± 0.028 | -0.0315 ± 0.021 | -0.006 ± 0.018 | -0.013 ± 0.033 | -0.024 ± 0.031
4 | 3C:HLA-DR | -0.0145 ± 0.049 | 0.001 ± 0.021 | 0.0135 ± 0.0064 | -0.004 ± 0.021 | 0.0055 ± 0.039 | 0.0015 ± 0.018 | 0 ± 0.034 | 0.0025 ± 0.00071 | 0.005 ± 0.0028 | -0.001 ± 0.0057 | -0.0075 ± 0.025 | -0.0145 ± 0.0078 | -0.0065 ± 0.0035 | -0.0005 ± 0.011 | -0.003 ± 0.011 | -0.0405 ± 0.0035 | -0.132 ± 0.028 | -0.0065 ± 0.0035 | -0.0135 ± 0.011 | -0.004 ± 0.016 | -0.023 ± 0.02 | -0.014 ± 0.014 | 0.013 ± 0.0057 | -0.0105 ± 0.0078 | 0.004 ± 0.021
5 | CASM3C:CD142/Tissue Factor | -0.034 ± 0.086 | -0.007 ± 0.017 | 0.025 ± 0.025 | -0.012 ± 0.014 | -0.029 ± 0.04 | 0.005 ± 0.055 | -0.023 ± 0.016 | -0.0025 ± 0.021 | -0.0255 ± 0.029 | 0.009 ± 0.048 | -0.01 ± 0.013 | -0.0345 ± 0.021 | 0.007 ± 0.02 | -0.0205 ± 0.0092 | -0.0375 ± 0.018 | -0.0515 ± 0.022 | -0.0235 ± 0.06 | -0.041 ± 0.0028 | -0.051 ± 0.017 | -0.037 ± 0.024 | -0.0265 ± 0.056 | -0.022 ± 0.016 | 0.004 ± 0.0071 | -0.017 ± 0.011 | 0.0055 ± 0.0064
6 | 3C:CXCL8/IL-8 | 0.007 ± 0.035 | -0.0005 ± 0.013 | 0.029 ± 0.037 | 0.008 ± 0.089 | 0.0325 ± 0.11 | 0.0565 ± 0.019 | -0.011 ± 0.0085 | 0.011 ± 0.047 | -0.0135 ± 0.025 | 0.01 ± 0.1 | -0.034 ± 0.055 | -0.0325 ± 0.053 | 0.06 ± 0.0085 | 0.02 ± 0.062 | 0.003 ± 0.035 | 0.0215 ± 0.012 | -0.0255 ± 0.026 | 0.0315 ± 0.013 | 0.0185 ± 0.042 | 0.0105 ± 0.03 | 0.054 ± 0.086 | -0.0025 ± 0.061 | -0.0005 ± 0.029 | 0.005 ± 0.037 | 0.0235 ± 0.063
7 | lMphg:CD69 | -0.004 ± 0.0057 | -0.019 ± 0.058 | -0.01 ± 0.044 | -0.004 ± 0.062 | -0.0055 ± 0.086 | -0.011 ± 0.062 | 0.0085 ± 0.067 | 0.005 ± 0.057 | -0.038 ± 0.025 | -0.039 ± 0.041 | -0.034 ± 0.04 | -0.065 ± 0.054 | -0.073 ± 0.025 | -0.005 ± 0.021 | -0.071 ± 0.0014 | -0.124 ± 0.026 | -0.256 ± 0.058 | -0.0495 ± 0.11 | -0.052 ± 0.071 | -0.064 ± 0.082 | -0.0825 ± 0.08 | -0.0065 ± 0.042 | -0.031 ± 0.0085 | -0.049 ± 0.024 | -0.053 ± 0.016
8 | lMphg:SRB | 0.0035 ± 0.0078 | -0.0045 ± 0.015 | -0.0065 ± 0.0078 | -0.011 ± 0.014 | 0.007 ± 0.024 | -0.01 ± 0.0085 | -0.014 ± 0.021 | 0.0035 ± 0.0092 | 0.0015 ± 0.0021 | -0.0045 ± 0.028 | -0.001 ± 0.011 | 0.0125 ± 0.019 | -0.002 ± 0.018 | -0.0005 ± 0.005 | -0.01 ± 0.016 | -0.0315 ± 0.0035 | -0.144 ± 0.0064 | -0.0025 ± 0.0092 | -0.0055 ± 0.013 | -0.0035 ± 0.0035 | -0.0105 ± 0.0021 | -0.009 ± 0.0028 | -0.0025 ± 0.021 | 0.0105 ± 0.0092 | 0.013 ± 0.0042
9 | HDF3CGF:CXCL9/MIG | 0.004 ± 0.011 | -0.055 ± 0.04 | 0.005 ± 0.013 | -0.035 ± 0.051 | -0.0035 ± 0.025 | 0.0095 ± 0.0021 | 0.0055 ± 0.049 | -0.001 ± 0.0014 | -0.0025 ± 0.018 | -0.0165 ± 0.036 | -0.013 ± 0.048 | -0.0395 ± 0.018 | -0.046 ± 0.038 | -0.0075 ± 0.015 | -0.0395 ± 0.012 | -0.018 ± 0.018 | -0.0675 ± 0.012 | 0.0135 ± 0.025 | 0.004 ± 0.0085 | 0.0135 ± 0.00071 | 0.0095 ± 0.011 | 0.0045 ± 0.029 | -0.041 ± 0.033 | -0.047 ± 0.02 | -0.142 ± 0.04
10 | LPS:CD69 | -0.022 ± 0.047 | 0.002 ± 0.0028 | -0.0025 ± 0.046 | -0.022 ± 0.058 | -0.0075 ± 0.091 | 0.0035 ± 0.0021 | 0.009 ± 0.041 | -0.029 ± 0.0071 | -0.0255 ± 0.033 | -0.025 ± 0.064 | -0.0315 ± 0.037 | -0.033 ± 0.055 | -0.111 ± 0.057 | -0.002 ± 0.0042 | -0.0455 ± 0.015 | -0.105 ± 0.063 | -0.192 ± 0.064 | 0.087 ± 0.033 | -0.002 ± 0.011 | -0.019 ± 0.069 | -0.0145 ± 0.08 | 0.0075 ± 0.057 | -0.015 ± 0.021 | -0.0335 ± 0.026 | -0.063 ± 0.028

Another view of some results above:
Row	Test System	level (log10) (Nonafluoropentanamide)	level (log10) [1]	level (log10) [2]	level (log10) [3]	level (log10) (Octafluoroadipamide)	level (log10) [4]	level (log10) (Tetrafluorosuccinic acid)	level (log10) ([5]; 740 nM)	level (log10) ([5]; 2200 nM)	level (log10) ([6]; 2200 nM)	level (log10) ([6]; 6700 nM)	level (log10) ([6]; 20000 nM)	level (log10) ([6]; 60000 nM)	level (log10) [7]	level (log10) (Perfluoropinacol; 2200 nM)	level (log10) (Perfluoropinacol; 6700 nM)	level (log10) (Perfluoropinacol; 20000 nM)	level (log10) ([8]; 740 nM)	level (log10) ([8]; 2200 nM)	level (log10) ([8]; 6700 nM)	level (log10) ([8]; 20000 nM)	level (log10) [9]	level (log10) ([10]; 2200 nM)	level (log10) ([10]; 6700 nM)	level (log10) ([10]; 20000 nM)
2	BT:sIL-2	0.0555 ± 0.037	0.029 ± 0.0057	-0.001 ± 0.086	0.064 ± 0.035	0.115 ± 0.11	0.051 ± 0.0085	0.0095 ± 0.035	0.007 ± 0.081	-0.0075 ± 0.049	0.0125 ± 0.023	-0.0555 ± 0.011	0.0325 ± 0.018	-0.01 ± 0.031	0.025 ± 0.0042	0.111 ± 0.087	0.107 ± 0.059	0.0335 ± 0.071	-0.032 ± 0.051	-0.0355 ± 0.04	-0.0185 ± 0.025	-0.0245 ± 0.039	0.045 ± 0.035	-0.0595 ± 0.015	-0.0175 ± 0.066	-0.0565 ± 0.1
8	lMphg:SRB	0.0035 ± 0.0078	-0.0045 ± 0.015	-0.0065 ± 0.0078	-0.011 ± 0.014	0.007 ± 0.024	-0.01 ± 0.0085	-0.014 ± 0.021	0.0035 ± 0.0092	0.0015 ± 0.0021	-0.0045 ± 0.028	-0.001 ± 0.011	0.0125 ± 0.019	-0.002 ± 0.018	-0.0005 ± 0.005	-0.01 ± 0.016	-0.0315 ± 0.0035	-0.144 ± 0.0064	-0.0025 ± 0.0092	-0.0055 ± 0.013	-0.0035 ± 0.0035	-0.0105 ± 0.0021	-0.009 ± 0.0028	-0.0025 ± 0.021	0.0105 ± 0.0092	0.013 ± 0.0042
